The values below come from publication PMC6797763.

Data set [1] deals with AP2-I (RAP2-7 AP2 domain, microexon included) (Gossypium arboreum). Briefly: EMSA. Conditions: 0.5 ug protein, 5 pmol probe in 20 uL, 5 mM Mg2+; 20 uL: 2 uL 10x buffer (100 mM Tris-HCl, 0.5 M KCl, 10 mM DTT, pH 7.5), 1 uL 50% glycerol, 1 uL 1% NP40, 1 uL 1 M KCl, 4 uL 25 mM MgCl2; recombinant protein; protein details: C-terminal 6xHis; label: 5'-FAM.
Data set [2] deals with AP2-S (RAP2-7 AP2 domain, microexon skipped) (Gossypium arboreum). Description: EMSA. The note with it: 0.5 ug protein, 5 pmol probe in 20 uL, 5 mM Mg2+, almost failed to bind; 20 uL: 2 uL 10x buffer (100 mM Tris-HCl, 0.5 M KCl, 10 mM DTT, pH 7.5), 1 uL 50% glycerol, 1 uL 1% NP40, 1 uL 1 M KCl, 4 uL 25 mM MgCl2; recombinant protein; protein details: C-terminal 6xHis; label: 5'-FAM. (In EMSA bound probe runs differently from free probe, usually more slowly.)

For at least one entry, the source does not settle the construct or the ends of the probe. For some assays here: Weaker means in comparison with the reference protein, sequence or condition of that experiment.

With “CTAGACTAGGTGCAGAATTCACTTGATGTCGATACCAGTCTAGACGTAACTGGACGAG (double strand) [Hot probe (58 nt AP2 probe)]”, the binding result in data set [1] is listed as “binds”; in data set [2] it was “binds more weakly”.
